PubChem BioAssay AID1259314 | Drosophila RNAi Screening Center – 2017

Screen: 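Transmembrane protein genes affecting ATP after manganese overload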 (primary screen)
System: Drosophila S2R+ cells
Reagent: long dsRNA against Drosophila genes
Time to read-out: 5 days (4 days knock-down, then 1 day metal exposure)
Conditions: manganese chloride added to 15 mM for 24 hours
Measured: 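Luciferase ATP signal used as a proxy for viable cell number, reported as one averaged z-score per dsRNA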
Reading the numbers: mean ATP z-score: higher = more ATP than the plate average, more viable cells under manganese
Call rule: 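a mean ATP z-score past 1.5 in either direction is called active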
Calls: active = strong ATP change, up or down; inactive = no strong ATP change
Here is an unselected part of about 3,100 reagents. 289 of all reagents (9.3%) were called active. 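Active includes both higher and lower ATP than plate average; check the z-score sign for direction.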 A number with no mark means an inactive call. Not given: the amount of reagent.

Tsp42Ep [DRSC06871] — mean ATP z-score: 1.67 (active)
blot [DRSC11328] — mean ATP z-score: -0.637
blot [DRSC26157] — mean ATP z-score: 1.3
Or9a [DRSC18692] — mean ATP z-score: -0.239
Or9a [DRSC28277] — mean ATP z-score: -0.782
Nmdar2 [DRSC18183] — mean ATP z-score: 1.05
Nmdar2 [DRSC18569] — mean ATP z-score: 0.35
Tapdelta [DRSC05946] — mean ATP z-score: -1.08
Tapdelta [DRSC39531] — mean ATP z-score: -0.724
Grd [DRSC11178] — mean ATP z-score: -1.37
Grd [DRSC28513] — mean ATP z-score: 0.895
rdgB [DRSC20365] — mean ATP z-score: 0.797
rdgB [DRSC27840] — mean ATP z-score: -0.613
CG32687 [DRSC18210] — mean ATP z-score: 0.55
CG32687 [DRSC18237] — mean ATP z-score: -0.323
CG32687 [DRSC37079] — mean ATP z-score: 0.724
ZnT86D [DRSC16091] — mean ATP z-score: -0.709
CG30394 [DRSC04074] — mean ATP z-score: -0.322
CG30394 [DRSC04260] — mean ATP z-score: -0.254
CG32091 [DRSC10820] — mean ATP z-score: -0.661
CG32091 [DRSC39787] — mean ATP z-score: -0.4
st [DRSC11399] — mean ATP z-score: 0.744
st [DRSC28257] — mean ATP z-score: -0.281
LpR1 [DRSC15665] — mean ATP z-score: -2.43 (active)
LpR1 [DRSC15669] — mean ATP z-score: 1.44
LpR1 [DRSC27848] — mean ATP z-score: 1.17

Records above whose target name starts with L or l (3):
LpR1 [DRSC15665] — mean ATP z-score: -2.43 (active)
LpR1 [DRSC15669] — mean ATP z-score: 1.44
LpR1 [DRSC27848] — mean ATP z-score: 1.17

The listing continues.
Itpr [DRSC12354] — mean ATP z-score: -0.771
Itpr [DRSC28770] — mean ATP z-score: -0.584
nAChRalpha1 [DRSC13672] — mean ATP z-score: 0.124
nAChRalpha1 [DRSC17008] — mean ATP z-score: -0.253
Or71a [DRSC11244] — mean ATP z-score: -0.783
Or71a [DRSC39566] — mean ATP z-score: 0.614
Mvl [DRSC16752] — mean ATP z-score: -0.411
Mvl [DRSC39671] — mean ATP z-score: -0.103
CG43373 [DRSC09869] — mean ATP z-score: -1.64 (active)
CG16736 [DRSC15145] — mean ATP z-score: 0.0205
cue [DRSC08248] — mean ATP z-score: -0.613
cue [DRSC39507] — mean ATP z-score: -0.203
Or67b [DRSC11241] — mean ATP z-score: 0.921
Or67b [DRSC39658] — mean ATP z-score: 1.36
Alg10 [DRSC10892] — mean ATP z-score: -1.14
Alg10 [DRSC39451] — mean ATP z-score: 1.81 (active)
Nha2 [DRSC14689] — mean ATP z-score: 1.18
Nha2 [DRSC15623] — mean ATP z-score: 0.201
salt [DRSC25514] — mean ATP z-score: 0.14
Gat [DRSC17144] — mean ATP z-score: 0.609
Gat [DRSC39474] — mean ATP z-score: 0.241
